Results on one molecule are retold here after patent publication US20230235036A1, “ACVR1 (ALK2) RECEPTOR INHIBITION TO TREAT NEUROLOGICAL DISEASES” (The J. David Gladstone Institutes, a testamentary trust …, priority 2020, published 2023).

The test system of the test is primary rat OPCs. The test is described as follows: OPC-X-screen: OPC differentiation to MBP+ OLs or GFAP+ astrocytes in presence of fibrinogen. The test is classed as cell-based. Conditions: myelin-promoting compound screen; fibrinogen 1.5 mg/ml; 3 days; benztropine, clemastine, quetiapine, miconazole, (±)U-50488 1 μM, clobetasol 5 μM, XAV-939 0.1 μM, DMH1 1 μM.

Consider `CN1CCC[C@@H]1CCO[C@](C)(c1ccccc1)c1ccc(Cl)cc1` [clemastine], for which the “OPC differentiation to mature MBP+ OLs under extrinsic inhibition by fibrinogen” value is on record as “did not overcome extrinsic inhibition of OPC differentiation by fibrinogen”.
